Test results: ChEMBL document CHEMBL4296182, “CO-ADD screening of NIH NCI Diversity Set V”
This is one part of the list. Potency and affinity values are given separately.

Test system: Pseudomonas aeruginosa
Conditions: Concentration 20 uM; ASSAY_TEST Inhibition of Bacterial Growth; detection method Absorption (OD600); MEDIA CAMHB; plate type 384well; NBS; CORNING #3640; time 18 hr

Compound	Inhibition [%]
O=[N+]([O-])c1cccnc1Oc1cc(Cl)c(Cl)cc1Cl	15.86
CCOc1ccc(/C=C2\NC(=S)NC2=O)cc1	1.39
CCOC(=O)C1(C#N)C(=O)CS/C1=N/c1ccccc1Cl (stereo unspecified)	17.1
Nc1ccc2c(c1Cl)C(=O)c1ccc(N)c(Cl)c1C2=O	19.37
Cn1c(C(=O)c2ccncc2)cc2ccccc21	-4.83
COc1ccc(C(=S)N2CCN(c3ccccc3C)CC2)cc1	16.4
Cc1c(Cl)cccc1NC(=O)CC1Sc2ccccc2NC1=O (stereo unspecified)	-8.25
COc1ccc2[nH]c(-c3ccccc3)cc2c1	2.74
CCC12CCCN3CCc4c(n(c5ccccc45)C(O)(C(=O)OC)C1)C32 (stereo unspecified)	20.2
Cc1ccccc1N=C(S)Nc1ccccn1	-17.56
CC(C)c1cc(C(F)(F)F)nc(NNc2nc(C(C)C)cc(C(F)(F)F)n2)n1	8.62
O=C1c2cccc3cc([N+](=O)[O-])cc(c23)C(=O)N1CCN1CCCC1 [PINAFIDE]	-4.11
NC(=O)NC1NC(=O)NC1=O (stereo unspecified) [ALLANTOIN]	15.75
CCCSc1nc2c(c(=O)n(C)c(=O)n2C)n1C	1.88
Nc1ccc(/N=N/c2ccc(O)cc2)c(N)n1	-9.14
CCOC(=O)c1cc2c(OC)c(OC)ccc2c2ncc(C#N)c(O)c12	-12.49

Already shown: 2 of the compounds above.
Compound	Inhibition [%]
COc1ccc(C(=S)N2CCN(c3ccccc3C)CC2)cc1	16.4
Cc1c(Cl)cccc1NC(=O)CC1Sc2ccccc2NC1=O (stereo unspecified)	-8.25

The list goes on:

Compound	Inhibition [%]
Cc1ccc2nc(Cl)cc(=O)n2c1	-9.28
C(=C\c1ccc(/C=C/c2ccccc2)nn1)/c1ccccc1	3.75
Cc1ccc(/N=N\c2c(O)ccc3[nH]nnc23)cc1	9.05
CNC(=O)Nc1ccc(S(N)(=O)=O)cc1	1.61
CSc1nc(O)cc(Cl)n1	17.53
COc1ccc(C(=S)N2CCN(c3cccc(Cl)c3)CC2)cc1	18.9
CCOC(=O)c1nnsc1-c1ccc(-c2snnc2C(=O)OCC)cc1	22.55
C/C(=N\O)C1CC(CC(=O)O)C1(C)C (stereo unspecified)	4.37
CCCNC(=O)Nc1ccc(C)cc1C	-13.16
CC(C)(C)CC(C)(C)N1CN=C(S)NC1	8.12
O=C1OCC/C1=C\c1ccc(O)cc1	-1.55
O=C(Cn1ccc(=O)[nH]c1=O)Nc1ccc(C(=O)O)c(O)c1	23.69
c1ccc2sc(SCSc3nc4ccccc4s3)nc2c1	9.26
O=S1(=O)CCC(N(/N=C/c2ccco2)c2ccccc2)C1 (stereo unspecified)	8.08
CC1=CC2C(C(O)CC3(C)C2CC(C)C32OCOC23COCO3)C2(C)C/C(=C/O)C(=O)C=C12 (stereo unspecified)	18.62
